# Results as given in the supplement of paper PMC8728848.
# The other results are listed elsewhere or left out.
# Experiments:
# Assay in all cases: glycan array binding signal (z-score within array); higher = stronger binding
# Conditions in all cases: glycan notation: IUPAC condensed, linker removed
# Fuc(a1-2)Gal = biological target: Fuc(a1-2)Gal
# Procedure, shortened: (§1)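 Glycan array data came from 3228 arrays in the Consortium for Functional Glycomics database, and only arrays with an available protein sequence were kept. Glycan names were put into IUPAC-condensed notation, and columns mapping to the same glycan were averaged. The binding signal is a within-array Z-score, averaged across arrays of one protein sequence run at different concentrations or buffers and across linkers. A negative Z-score can be read as non-binding.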
# Fuc(a1-2)Gal(b1-3)GalNAc = biological target: Fuc(a1-2)Gal(b1-3)GalNAc
# Procedure, shortened: as §1
# [1] = biological target: Fuc(a1-2)Gal(b1-3)GalNAc(a1-3)[Fuc(a1-2)]Gal(b1-4)Glc
# Procedure, shortened: as §1
# [2] = biological target: Fuc(a1-2)Gal(b1-3)GalNAc(a1-3)[Fuc(a1-2)]Gal(b1-4)GlcNAc
# Procedure, shortened: as §1
# [3] = biological target: Fuc(a1-2)Gal(b1-3)GalNAc(b1-3)Gal
# Procedure, shortened: as §1
# [4] = biological target: Fuc(a1-2)Gal(b1-3)GalNAc(b1-3)Gal(a1-4)Gal(b1-4)Glc
# Procedure, shortened: as §1
# [5] = biological target: Fuc(a1-2)Gal(b1-3)GalNAc(b1-4)[Neu5Ac(a2-3)]Gal(b1-4)Glc
# Procedure, shortened: as §1
# Fuc(a1-2)Gal(b1-3)GlcNAc = biological target: Fuc(a1-2)Gal(b1-3)GlcNAc
# Procedure, shortened: as §1
# [6] = biological target: Fuc(a1-2)Gal(b1-3)GlcNAc(b1-2)Man(a1-3)[Fuc(a1-2)Gal(b1-3)GlcNAc(b1-2)Man(a1-6)]Man(b1-4)GlcNAc(b1-4)GlcNAc
# Procedure, shortened: as §1
# [7] = biological target: Fuc(a1-2)Gal(b1-3)GlcNAc(b1-3)Gal(b1-4)Glc
# Procedure, shortened: as §1
# [8] = biological target: Fuc(a1-2)Gal(b1-3)GlcNAc(b1-3)[Fuc(a1-3)[Gal(b1-4)]GlcNAc(b1-6)]Gal(b1-4)Glc
# Procedure, shortened: as §1
# [9] = biological target: Fuc(a1-2)Gal(b1-3)[Fuc(a1-4)]GlcNAc
# Procedure, shortened: as §1
# [10] = biological target: Fuc(a1-2)Gal(b1-3)[Fuc(a1-4)]GlcNAc(b1-2)Man(a1-3)[Fuc(a1-2)Gal(b1-3)[Fuc(a1-4)]GlcNAc(b1-2)Man(a1-6)]Man(b1-4)GlcNAc(b1-4)GlcNAc
# Procedure, shortened: as §1
# [11] = biological target: Fuc(a1-2)Gal(b1-3)[Fuc(a1-4)]GlcNAc(b1-3)[Fuc(a1-3)[Gal(b1-4)]GlcNAc(b1-6)]Gal(b1-4)Glc
# Procedure, shortened: as §1
# [12] = biological target: Fuc(a1-2)Gal(b1-3)[Fuc(a1-4)]GlcNAc(b1-3)[Gal(b1-4)GlcNAc(b1-6)]Gal(b1-4)Glc
# Procedure, shortened: as §1
# Fuc(a1-2)Gal(b1-4)Glc = biological target: Fuc(a1-2)Gal(b1-4)Glc
# Procedure, shortened: as §1
# Fuc(a1-2)Gal(b1-4)Glc6S = biological target: Fuc(a1-2)Gal(b1-4)Glc6S
# Procedure, shortened: as §1
# Fuc(a1-2)Gal(b1-4)GlcNAc = biological target: Fuc(a1-2)Gal(b1-4)GlcNAc
# Procedure, shortened: as §1
# [13] = biological target: Fuc(a1-2)Gal(b1-4)GlcNAc(b1-2)Man(a1-3)[Fuc(a1-2)Gal(b1-4)GlcNAc(b1-2)Man(a1-6)]Man(b1-4)GlcNAc(b1-4)GlcNAc
# Procedure, shortened: as §1
# [14] = biological target: Fuc(a1-2)Gal(b1-4)GlcNAc(b1-3)Gal(b1-4)GlcNAc
# Procedure, shortened: as §1
# [15] = biological target: Fuc(a1-2)Gal(b1-4)GlcNAc(b1-3)Gal(b1-4)GlcNAc(b1-3)Gal(b1-4)GlcNAc
# Procedure, shortened: as §1
# [16] = biological target: Fuc(a1-2)Gal(b1-4)GlcNAc(b1-3)GalNAc
# Procedure, shortened: as §1
# [17] = biological target: Fuc(a1-2)Gal(b1-4)GlcNAc6S
# Procedure, shortened: as §1
# [18] = biological target: Fuc(a1-2)Gal(b1-4)[Fuc(a1-3)]GlcNAc
# Procedure, shortened: as §1
# [19] = biological target: Fuc(a1-2)Gal(b1-4)[Fuc(a1-3)]GlcNAc(b1-2)Man(a1-3)[Fuc(a1-2)Gal(b1-4)[Fuc(a1-3)]GlcNAc(b1-2)Man(a1-6)]Man(b1-4)GlcNAc(b1-4)GlcNAc
# Procedure, shortened: as §1
# [20] = biological target: Fuc(a1-2)Gal(b1-4)[Fuc(a1-3)]GlcNAc(b1-3)Gal(b1-4)[Fuc(a1-3)]GlcNAc
# Procedure, shortened: as §1
# [21] = biological target: Fuc(a1-2)Gal(b1-4)[Fuc(a1-3)]GlcNAc(b1-3)Gal(b1-4)[Fuc(a1-3)]GlcNAc(b1-3)Gal(b1-4)[Fuc(a1-3)]GlcNAc
# Procedure, shortened: as §1
# Fuc(a1-2)Gal6S(b1-4)Glc = biological target: Fuc(a1-2)Gal6S(b1-4)Glc
# Procedure, shortened: as §1
# [22] = biological target: Fuc(a1-2)Gal6S(b1-4)Glc6S
# Procedure, shortened: as §1
# [23] = biological target: Fuc(a1-2)Gal6S(b1-4)GlcNAc
# Procedure, shortened: as §1
# Fuc(a1-2)[Gal(a1-3)]Gal = biological target: Fuc(a1-2)[Gal(a1-3)]Gal
# Procedure, shortened: as §1
# [24] = biological target: Fuc(a1-2)[Gal(a1-3)]Gal(b1-3)GlcNAc
# Procedure, shortened: as §1
# [25] = biological target: Fuc(a1-2)[Gal(a1-3)]Gal(b1-3)GlcNAc(b1-2)Man(a1-3)[Fuc(a1-2)[Gal(a1-3)]Gal(b1-3)GlcNAc(b1-2)Man(a1-6)]Man(b1-4)GlcNAc(b1-4)GlcNAc
# Procedure, shortened: as §1
# [26] = biological target: Fuc(a1-2)[Gal(a1-3)]Gal(b1-4)Glc
# Procedure, shortened: as §1
# [27] = biological target: Fuc(a1-2)[Gal(a1-3)]Gal(b1-4)GlcNAc
# Procedure, shortened: as §1
# [28] = biological target: Fuc(a1-2)[Gal(a1-3)]Gal(b1-4)GlcNAc(b1-2)Man(a1-3)[Fuc(a1-2)[Gal(a1-3)]Gal(b1-4)GlcNAc(b1-2)Man(a1-6)]Man(b1-4)GlcNAc(b1-4)GlcNAc
# Procedure, shortened: as §1
# [29] = biological target: Fuc(a1-2)[Gal(a1-3)]Gal(b1-4)[Fuc(a1-3)]GlcNAc
# Procedure, shortened: as §1
binder,measurement,setting,value
"SRS6 (Toxoplasma gondii), Q9NH12 (protein) MARTGSMQQRRGGFQTTARMLMAVCVSGVLLLSSGPSSANKLTEGQQNQNSGPGAATQEGPTIEGAVAKCVLKTTAAENGSSRAKNTTGLTLSKENLVVSLQCSGEKNAIVPKDQKKVCSAAPNAKVADCKGADTDKQVTLKSLLGTSGDIQWEKTIVSTDNKGEVMTLKIKESELPLFDKAFFVGCEEDKAQTRTSQATECKVNVSVKARPSTVGENNVVTCAYGKDSNPRPLEVEMSADNDTLTIDCGTDGSLKPTKYTEEFCVTDNSQLESCTTKKFSEILPTFLPSWWVSDSQNGSAKLTIPESGFPEEQQQFRLGCVPKKTTQSPQANPSVKTEKEEGAQNTDASTSNCSVIVTVKASNFSSLASSIAPTAAVAGGAAALTGFLVGSF",glycan array binding signal (z-score),Fuc(a1-2)Gal,0.603
same,glycan array binding signal (z-score),Fuc(a1-2)Gal(b1-3)GalNAc,0.36
same,glycan array binding signal (z-score),[1],-0.705
same,glycan array binding signal (z-score),[2],0.163
same,glycan array binding signal (z-score),[3],1.86
same,glycan array binding signal (z-score),[4],0.811
same,glycan array binding signal (z-score),[5],-0.56
same,glycan array binding signal (z-score),Fuc(a1-2)Gal(b1-3)GlcNAc,-0.439
same,glycan array binding signal (z-score),[6],-0.117
same,glycan array binding signal (z-score),[7],-0.143
same,glycan array binding signal (z-score),[8],-0.921
same,glycan array binding signal (z-score),[9],-0.013
same,glycan array binding signal (z-score),[10],-0.585
same,glycan array binding signal (z-score),[11],-0.134
same,glycan array binding signal (z-score),[12],0.276
same,glycan array binding signal (z-score),Fuc(a1-2)Gal(b1-4)Glc,0.023
same,glycan array binding signal (z-score),Fuc(a1-2)Gal(b1-4)Glc6S,0.034
same,glycan array binding signal (z-score),Fuc(a1-2)Gal(b1-4)GlcNAc,0.092
same,glycan array binding signal (z-score),[13],1.71
same,glycan array binding signal (z-score),[14],-0.493
same,glycan array binding signal (z-score),[15],-0.175
same,glycan array binding signal (z-score),[16],0.033
same,glycan array binding signal (z-score),[17],0.609
same,glycan array binding signal (z-score),[18],0.016
same,glycan array binding signal (z-score),[19],-0.065
same,glycan array binding signal (z-score),[20],-0.608
same,glycan array binding signal (z-score),[21],-0.156
same,glycan array binding signal (z-score),Fuc(a1-2)Gal6S(b1-4)Glc,-0.193
same,glycan array binding signal (z-score),[22],0.998
same,glycan array binding signal (z-score),[23],-0.136
same,glycan array binding signal (z-score),Fuc(a1-2)[Gal(a1-3)]Gal,-0.077
same,glycan array binding signal (z-score),[24],-0.411
same,glycan array binding signal (z-score),[25],-0.263
same,glycan array binding signal (z-score),[26],-0.753
same,glycan array binding signal (z-score),[27],-0.624
same,glycan array binding signal (z-score),[28],0.219
same,glycan array binding signal (z-score),[29],0.039

# Part of the list above, reformatted:
binder	measurement	setting	value
SRS6 (Toxoplasma gondii), Q9NH12 (protein) MARTGSMQQRRGGFQTTARMLMAVCVSGVLLLSSGPSSANKLTEGQQNQNSGPGAATQEGPTIEGAVAKCVLKTTAAENGSSRAKNTTGLTLSKENLVVSLQCSGEKNAIVPKDQKKVCSAAPNAKVADCKGADTDKQVTLKSLLGTSGDIQWEKTIVSTDNKGEVMTLKIKESELPLFDKAFFVGCEEDKAQTRTSQATECKVNVSVKARPSTVGENNVVTCAYGKDSNPRPLEVEMSADNDTLTIDCGTDGSLKPTKYTEEFCVTDNSQLESCTTKKFSEILPTFLPSWWVSDSQNGSAKLTIPESGFPEEQQQFRLGCVPKKTTQSPQANPSVKTEKEEGAQNTDASTSNCSVIVTVKASNFSSLASSIAPTAAVAGGAAALTGFLVGSF	glycan array binding signal (z-score)	[20]	-0.608
same	glycan array binding signal (z-score)	[21]	-0.156
